Patent US11905251B1, “1-cyclopropyl-6-fluoro-7-(4-(2-hydroxy-3-(naphthalen-2-yloxy)propylpiperazin-1-yl)-4-oxo-1,4-dihydroquinoline-3-carboxylic acid as an eco-friendly insecticidal agent against Spodoptera littoralis (boisd.)” (priority 2023, dated 2024)

System: Spodoptera littoralis (Boisd.) 2nd and 4th instar larvae
Test: Insecticidal bioassay screening (castor leaf dip, larval mortality)
Format: in vivo
Conditions: after 72 h of treatment, regression line slope
Method: Five concentrations (200, 100, 50, 25, 12.5 ppm) were designed for this synthetic compound and the reference fenoxycarb compound as the dynamic ingredients based on ppm via diluting the commercial formulation.
In this experiment, castor leaves are immersed in each of the previously prepared concentrations of the components for 10 seconds and then left to dry for 60 minutes. Larvae of the second and fourth instars of each checked strain are prepared with treated leaves in gauze-covered glass containers for 72 hrs. An untreated control is made in which leaves are dipped in triton x-100 and distilled water only. Then the preserved leaves were removed & fresh, untreated leaves were provided for 72 hours. Three replicates (10 larvae each) were checked for each concentration. Daily inspection was carried out for all treatments and mortality percentages were recorded 3 days (72 hours) after treatment. The average mortality percentage was corrected employing Abbott's formula. The corrected mortality rate for each of the previously synthesized compounds is statistically calculated according to Finney (1970). Through this rate, the corresponding concentration test lines (LDP lines) are assessed. Fifty and ninety percent mortality are determined, and the regression values for the checked products were previously evaluated.

SMILES: O=C(O)c1cn(C2CC2)c2cc(N3CCN(CC(O)COc4ccc5ccccc5c4)CC3)c(F)cc2c1=O (centres unmarked) [Compound 7]
- slope ± SE (2nd instar larvae of S. littoralis): 0.279 ± 0.084
- slope ± SE (4th instar larvae of S. littoralis): 0.234 ± 0.0830
